Results as given in PubChem BioAssay AID493014 (National Center for Advancing Translational Sciences (NCATS), 2011).
The list shows a part of the results. Further columns of the screen follow, without active or inactive calls. Most of these compounds were active or inconclusive in the main read-out, so they are no random draw. Potencies come from curve fits of mixed quality, noted in brackets.

Test: qHTS Assay to Find Inhibitors of Chronic Active B-Cell Receptor Signaling
Conditions: ABC-DLBCL IkBa-CBG/CBR reporter, luminescence ratio (green luciferase fused to IkBa over red control in TMD8 lymphoma cells), 4 h
In short: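 Doxycycline induced both beetle luciferases in TMD8 lymphoma cells; IKK-driven degradation limits the IkappaBalpha-fused green signal, while red luminescence normalises for cell number and nonspecific effects. Compounds tested up to 46 uM, 4 hrs.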

[1] = measured here: CBR red luminescence, cell number
[2] = measured here: IkBa-CBG green luminescence

| Structure (SMILES) | AC50 [1] | AC50 [2] |
| --- | --- | --- |
| CCOC(=O)c1c(C)n(C)c2ccc(OC)c(NC(=O)CN3CCSCC3)c12 | 12.6 µM [rising, partial curve] | 12.6 µM [falling, partial curve, poor fit] |
| Nc1cc(-c2ccc(OC(F)(F)F)cc2)nn1-c1ccc(Cl)c(Cl)c1 | 10 µM [rising, partial curve] | – |
| O=C(Nc1ccc(C(=O)O)cc1)Nc1ccc([N+](=O)[O-])cc1 | 6.31 µM [falling, partial curve] | – |
| CNC(=O)c1cc(C(=O)c2ccccc2C(F)(F)F)c[nH]1 | 5.01 µM [rising, partial curve, poor fit] | – |
| CC1=C(/C=C/C(C)=C/C=C/C(C)=C/C(=O)Nc2ccc(O)cc2)C(C)(C)CCC1 | 8.2 µM [rising, partial curve, poor fit] | – |
| CCCCSc1n[nH]c(N)n1 | 10.3 µM [rising, partial curve, poor fit] | – |
| COc1ccc(C(=O)Nc2ccc3[nH]ncc3c2)cc1 | 12.6 µM [falling, partial curve] | – |
| Cc1cccc(NC(=O)c2cccc(C(F)(F)F)c2)c1 | 1.41 µM [rising, full curve] | – |
| O=C(Nc1ccc(Cl)cc1C(=O)O)c1ccc2c(c1)C(=O)N(Cc1ccco1)C2=O | 11.6 µM [falling, partial curve] | – |
| O=C(CNC(=O)c1ccccc1F)N/N=C/c1ccco1 | 15.8 µM [falling, single point] | – |
| Cc1ccc(-n2nnnc2SCC(=O)Nc2cccc(NC(=O)c3ccco3)c2)cc1C | 1.58 µM [falling, full curve, poor fit] | – |
| COc1ccc2c(c1)c(CC(=O)Nc1cc(C)ccc1C)c(C)n2C(=O)c1ccc(Cl)cc1 | 2.31 µM [rising, single point] | – |
| O=C(NCc1ccc(Cl)cc1)N1CCN(Cc2ccccc2)CC1 | 11.2 µM [falling, partial curve, poor fit] | – |
| O=C(N/N=C/c1cc([N+](=O)[O-])cc(Br)c1O)C12CC3CCC(CC(C3)C1)C2 | 35.5 µM [rising, single point] | – |
| CC1=NNC(=O)C(CC(=O)Nc2ccc(Cl)c(Cl)c2)C1 (stereo not given) | 18.4 µM [rising, single point] | – |
| COc1ccc(C(=O)Cc2cc3cccc(OC)c3oc2=O)cc1 | 1.12 µM [falling, full curve, poor fit] | – |
| Cc1ccc(/C=C/C(=O)OC(C)C(=O)Nc2ncc(Cl)cc2Cl)o1 (stereo not given) | 29.1 µM [rising, single point] | – |
| O=C(COC(=O)c1cc2ccccc2oc1=O)Nc1ccc(F)cc1F | 31.6 µM [falling, single point] | – |
| CCOC(=O)C1C(=O)NC(N2CCc3ccccc32)=NC1c1ccccc1 (stereo not given) | 31.6 µM [rising, single point] | – |
| Nc1ccccc1Sc1ccc(C(F)(F)F)cc1[N+](=O)[O-] | 11.2 µM [rising, partial curve, poor fit] | – |

| Structure (SMILES) | AC50 [1] | AC50 [2] |
| --- | --- | --- |
| NNC(=O)c1cncc(Br)c1 | 20 µM [falling, partial curve, poor fit] | – |
| O=C(C1=NN[C@@H]2C(=O)N(Cc3ccccc3)C(=O)[C@H]12)c1ccc([N+](=O)[O-])cc1 | 2.24 µM [rising, full curve, poor fit] | – |
| CCOc1ccccc1C(=O)N/N=C/c1coc2ccc(C)cc2c1=O | 35.5 µM [rising, single point] | 35.5 µM [falling, single point] |
| COCCN1Cc2cccc(C(=O)Nc3ccc4c(c3)OCCO4)c2C1=O | 2.91 µM [rising, full curve, poor fit] | – |
| COc1ccc(C(=O)CC(=O)C(=O)Nc2ccc(Cl)cc2)cc1 | 4.47 µM [falling, full curve] | – |
| COc1cc(C(O)P(=O)(OCC(C)C)c2ccc(N(C)C)cc2)cc(OC)c1OC (stereo not given) | 1.26 µM [rising, full curve, poor fit] | – |
| CCCN(CC(=O)Nc1ccccc1OC)C(=O)c1cc(-c2cccs2)nn1-c1ccccc1 | 20.6 µM [falling, partial curve, poor fit] | – |
| Cc1ccccc1CC(=O)N1CCCC(CCC(=O)N2CCN(c3ccccn3)CC2)C1 (stereo not given) | 35.5 µM [falling, single point] | – |
| Cc1c(NS(=O)(=O)c2cccc(C(=O)N3CCC(C(N)=O)CC3)c2)c(=O)n(-c2ccccc2)n1C | 29.1 µM [rising, single point] | – |
| CC(C)Cc1ccc(C(=O)NCCOc2ccccc2)o1 | 1 µM [rising, full curve, poor fit] | – |
| C=C1CCC[C@]2(C)C[C@H]3OC(=O)C(CNCC(C)C)[C@H]3CC12 (stereo not given in full) | 17.8 µM [falling, partial curve] | 35.5 µM [rising, partial curve, poor fit] |
| NC(=O)Nc1ccccc1C(=O)Nc1ccc2ccccc2c1 | 31.6 µM [falling, partial curve, poor fit] | – |
| COc1ccc(OC)c(NC(=O)c2cccnc2Sc2cc(C)ccc2C)c1 | 6.51 µM [rising, partial curve, poor fit] | – |
| CCc1nnc(NC(=O)C2Cc3ccccc3C(=O)O2)s1 (stereo not given) | 29.1 µM [rising, single point] | – |
| O=C(Nc1ccc(-c2csc(Nc3cccc(C(F)(F)F)c3)n2)cc1)c1cccc(C(F)(F)F)c1 | 35.5 µM [falling, single point] | – |
| COc1ccc(Nc2nc(N)nc(CSc3nccn3C)n2)cc1 | 17.8 µM [falling, partial curve, poor fit] | – |
| CCOc1ccccc1NS(=O)(=O)c1c(C)noc1C | 11.2 µM [rising, partial curve] | – |
| CCc1ccc(-c2nnn(CC(=O)N(C3CCCC3)C3CCS(=O)(=O)C3)n2)cc1 (stereo not given) | 2.91 µM [falling, partial curve, poor fit] | – |
| O=C(NCc1cccnc1)C1CCN(c2ccc(S(=O)(=O)N3CCOCC3)cc2Cl)CC1 | 3.16 µM [rising, single point] | – |
| CCOC(=O)c1cccc(NC(=O)CCc2nc(-c3ccccc3F)no2)c1 | 3.16 µM [rising, partial curve, poor fit] | – |

| Structure (SMILES) | AC50 [1] | AC50 [2] |
| --- | --- | --- |
| Cc1ccccc1C(=O)N/N=C/c1ccccn1 | 11.6 µM [falling, partial curve] | – |
| CC1(C)N(O)CC(c2cccs2)=[N+]1[O-] | 29.1 µM [falling, partial curve, poor fit] | – |
| COc1ccc(OC)c(NC(=O)CN(c2ccc(C)cc2)S(=O)(=O)c2c(C)n[nH]c2C)c1 | 3.55 µM [falling, full curve] | – |
| Cc1cc(/C=N/NC(N)=S)c(C)n1-c1ccc(Cl)cc1 | 18.4 µM [falling, single point] | 18.4 µM [falling, single point] |
| Cc1ccc(C(=O)CC(=O)c2ccccc2)cc1 | 3.55 µM [rising, partial curve, poor fit] | – |
| O=C(C1=C[C@H](c2csc3ccccc23)C[C@H](OCCCCO)O1)N1CCN(Cc2ccccc2)CC1 | 8.91 µM [falling, partial curve, poor fit] | – |
| C#CCOCCOCCOCCNc1nc(N2CCN(C(=O)CCCCCCCCCCNC(=O)[C@H]([C@@H](C)CC)n3cc(CCCCN=C(N)N)nn3)CC2)nc(N2CCN(C(=O)CCCCCCCCCCNC(=O)[C@H](CO)n3cc(CCCCCN)nn3)CC2)n1 | 23.1 µM [rising, partial curve] | 20.6 µM [falling, partial curve, poor fit] |
| Cn1c(C(=O)Nc2ccc3c(c2)OCO3)cc2sccc21 | 14.1 µM [falling, single point] | – |
| Cc1onc(-c2c(F)cccc2Cl)c1C(=O)Nc1cccc(S(=O)(=O)N2CCOCC2)c1 | 6.51 µM [rising, partial curve, poor fit] | 5.17 µM [falling, single point] |
| COc1ccc2ccccc2c1/C=N/O | 20 µM [falling, partial curve, poor fit] | – |
| Cn1cc(CN2CCc3c([nH]c4ccccc34)C2C(C)(C)C)cn1 (stereo not given) | 20 µM [falling, partial curve, poor fit] | – |
| Cc1cc(C(F)F)n2ncc(C(=O)NC3CCCCCC3)c2n1 | 1.84 µM [rising, partial curve, poor fit] | – |
| Cn1cc(C(c2ccccn2)c2cn(C)c3ccccc23)c2ccccc21 | 18.4 µM [falling, single point] | – |
| CNc1nc(Nc2ccc(C)c(Cl)c2)nc(N)c1[N+](=O)[O-] | 16.4 µM [rising, partial curve, poor fit] | – |
| Cc1c(/C(O)=C2\C(=O)C(=O)N(CCN(C)C)C2c2ccco2)cnn1-c1ccccc1 (stereo not given) | 4.61 µM [rising, full curve, poor fit] | – |
| CC(=O)NC(=S)Nc1ccc(S(=O)(=O)N2CCOCC2)cc1 | 7.08 µM [rising, partial curve, poor fit] | – |
| Cc1ccc(NC(=O)c2cc(S(=O)(=O)N3CCCCCC3)ccc2F)cc1F | 6.31 µM [falling, partial curve] | – |
| O=C(/C=C/c1ccccc1Cl)Nc1cccc(O)c1 | 15.8 µM [falling, partial curve] | – |
| C/C(Cn1cnc([N+](=O)[O-])n1)=N\NC(=O)c1ccccc1O | 3.55 µM [falling, full curve, poor fit] | – |

Entries of single compounds from above.
CC1(C)N(O)CC(c2cccs2)=[N+]1[O-] is listed with AC50 [1]: 29.1 µM [falling, partial curve, poor fit]
CCc1nnc(NC(=O)C2Cc3ccccc3C(=O)O2)s1 (stereo not given) is listed with AC50 [1]: 29.1 µM [rising, single point]
CC1=C(/C=C/C(C)=C/C=C/C(C)=C/C(=O)Nc2ccc(O)cc2)C(C)(C)CCC1 is listed with AC50 [1]: 8.2 µM [rising, partial curve, poor fit]
